Data on one molecule can be found in US20080124335A1 (NATIONAL CEREBRAL AND CARDIOVASCULAR CENTER, published 2008).

Sequences of proteins named here, by UniProt entry; tags and fusion partners are left off. A change or cut given only in a name is not applied to a line headed by its entry.
UniProt Q9GZQ4: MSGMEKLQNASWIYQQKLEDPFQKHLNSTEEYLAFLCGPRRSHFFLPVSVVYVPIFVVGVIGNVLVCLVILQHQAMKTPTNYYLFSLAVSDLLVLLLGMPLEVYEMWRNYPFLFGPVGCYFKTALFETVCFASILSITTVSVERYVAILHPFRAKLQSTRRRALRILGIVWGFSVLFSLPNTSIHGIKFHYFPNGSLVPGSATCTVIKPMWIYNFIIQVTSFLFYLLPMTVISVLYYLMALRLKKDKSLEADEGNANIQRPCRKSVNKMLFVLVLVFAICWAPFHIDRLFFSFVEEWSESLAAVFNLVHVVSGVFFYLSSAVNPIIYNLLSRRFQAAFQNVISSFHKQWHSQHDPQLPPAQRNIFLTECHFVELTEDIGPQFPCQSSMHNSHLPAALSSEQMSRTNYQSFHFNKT

These are yes or no findings as the source states them, for the method shown. Some entries that bind do so weakly or less than the wild type.

For this experiment, the target named is human TGR1 (human, UniProt Q9GZQ4 1-415). Kind of experiment: conclusion drawn from the receptor binding test and the calcium assay.

ILQRGSGTAAVDFTKKDHTATWGRPFFLFRPRN [human neuromedin S]: the binding entry is “binds”.
